# Measured values as given in the supplement of paper PMC8728848.
# This is one part of the list.
# B1: Erv41-EDTA (Saccharomyces cerevisiae), Q04651 (protein)
# chain: MKFLVNVALVFMVVYISYIYAAAPEHHHHHHDYDIPTTENLYFQGAMGYIDQQYVVDSQVRDTVQINMDIYVNTKCDWLQINVRDQTMDRKLVLEELQLEEMPFFIPYDTKVNDINEIITPELDEILGEAIPAEFREKLDTRSFFDESDPNKAHLPEFNGCHVFGSIPVNRVSGELQITAKSLGYVASRKAPLEELKFNHVINEFSFGDFYPYIDNPLDNTAQFNQDEPLTTYVYYTSVVPTLFKKLGAEVDTNQYSVNDYRYLYKDVAAKGDKMPGIFFKYNFEPLSIVVSDVRL
# Assays:
# Experiment in all cases: glycan array binding signal (z-score within array); higher = stronger binding
# Conditions in all cases: glycan notation: IUPAC condensed, linker removed
# [1] = target: Gal3S4S(b1-4)GlcNAc
# In short: (§1)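 Negative Z-scores can be read as non-binding. The Z-score is calculated within each array and then averaged across arrays of one protein sequence at different concentrations or buffers and across linkers. Arrays, 3228 in all, were curated from the Consortium for Functional Glycomics database and kept only where the protein sequence was available.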
# [2] = target: Gal3S6S(b1-4)GlcNAc
# In short: as §1
# [3] = target: Gal3S6S(b1-4)GlcNAc6S
# In short: as §1
# [4] = target: Gal4S(b1-4)GlcNAc
# In short: as §1
# [5] = target: Gal4S6S(b1-4)GlcNAc
# In short: as §1
# [6] = target: Gal6P(b1-4)GlcNAc
# In short: as §1
# [7] = target: Gal6S(b1-3)GlcNAc
# In short: as §1
# [8] = target: Gal6S(b1-3)GlcNAc6S
# In short: as §1
# [9] = target: Gal6S(b1-4)Glc
# In short: as §1
# [10] = target: Gal6S(b1-4)Glc6S
# In short: as §1
# [11] = target: Gal6S(b1-4)GlcNAc
# In short: as §1
# [12] = target: Gal6S(b1-4)GlcNAc6S
# In short: as §1
# [13] = target: GalNAc(a1-3)Gal
# In short: as §1
# [14] = target: GalNAc(a1-3)GalNAc
# In short: as §1
# [15] = target: GalNAc(a1-3)GalNAc(b1-3)Gal(a1-4)Gal(b1-4)Glc
# In short: as §1
# [16] = target: GalNAc(a1-3)GalNAc(b1-3)Gal(a1-4)Gal(b1-4)GlcNAc
# In short: as §1
# [17] = target: GalNAc(b1-3)Gal
# In short: as §1
# [18] = target: GalNAc(b1-3)Gal(a1-4)Gal(b1-4)GlcNAc
# In short: as §1
# [19] = target: GalNAc(b1-3)Gal(a1-4)Gal(b1-4)GlcNAc(b1-3)Gal(b1-4)Glc
# In short: as §1
# [20] = target: GalNAc(b1-3)Gal(a1-6)Gal(b1-4)Glc
# In short: as §1
# [21] = target: GalNAc(b1-3)GalNAc
# In short: as §1
# [22] = target: GalNAc(b1-3)GlcNAc
# In short: as §1
# [23] = target: GalNAc(b1-4)Gal(b1-4)Glc
# In short: as §1
# [24] = target: GalNAc(b1-4)GlcNAc
# In short: as §1
# [25] = target: GalNAc(b1-4)GlcNAc(b1-2)Man
# In short: as §1
# [26] = target: GalNAc(b1-4)GlcNAc(b1-2)Man(a1-3)[GalNAc(b1-4)GlcNAc(b1-2)Man(a1-6)]Man(b1-4)GlcNAc(b1-4)GlcNAc
# In short: as §1
# [27] = target: GalNAc(b1-4)GlcNAc(b1-3)GalNAc(b1-4)GlcNAc
# In short: as §1
# [28] = target: GalNAc(b1-4)GlcNAc6S
# In short: as §1
# [29] = target: GalNAc(b1-6)GalNAc
# In short: as §1
# [30] = target: GalNAc3S(b1-4)GlcNAc
# In short: as §1
# [31] = target: GalNAc3S(b1-4)GlcNAc3S
# In short: as §1
# [32] = target: GalNAc3S(b1-4)[Fuc(a1-3)]GlcNAc
# In short: as §1
# [33] = target: GalNAc4S6S(b1-4)GlcNAc
# In short: as §1
# [34] = target: GalNAc6S(b1-4)GlcNAc
# In short: as §1
# [35] = target: Glc(a1-4)Glc
# In short: as §1
# [36] = target: Glc(a1-4)Glc(a1-4)Glc(a1-4)Glc
# In short: as §1
# [37] = target: Glc(a1-6)Glc(a1-6)Glc
# In short: as §1
# [38] = target: Glc(a1-6)Glc(a1-6)Glc(a1-6)Glc
# In short: as §1
binder,measurement,setting,value
B1,glycan array binding signal (z-score),[1],-0.921
same,glycan array binding signal (z-score),[2],1.06
same,glycan array binding signal (z-score),[3],0.638
same,glycan array binding signal (z-score),[4],-0.173
same,glycan array binding signal (z-score),[5],-0.636
same,glycan array binding signal (z-score),[6],-0.304
same,glycan array binding signal (z-score),[7],-1.14
same,glycan array binding signal (z-score),[8],-0.494
same,glycan array binding signal (z-score),[9],-0.412
same,glycan array binding signal (z-score),[10],1.16
same,glycan array binding signal (z-score),[11],-0.37
same,glycan array binding signal (z-score),[12],-0.128
same,glycan array binding signal (z-score),[13],-1.08
same,glycan array binding signal (z-score),[14],0.121
same,glycan array binding signal (z-score),[15],-1.02
same,glycan array binding signal (z-score),[16],-0.179
same,glycan array binding signal (z-score),[17],-0.147
same,glycan array binding signal (z-score),[18],0.014
same,glycan array binding signal (z-score),[19],0.735
same,glycan array binding signal (z-score),[20],0.146
same,glycan array binding signal (z-score),[21],-0.282
same,glycan array binding signal (z-score),[22],-0.383
same,glycan array binding signal (z-score),[23],-0.146
same,glycan array binding signal (z-score),[24],-0.028
same,glycan array binding signal (z-score),[25],0.741
same,glycan array binding signal (z-score),[26],0.523
same,glycan array binding signal (z-score),[27],-0.339
same,glycan array binding signal (z-score),[28],-0.332
same,glycan array binding signal (z-score),[29],-0.897
same,glycan array binding signal (z-score),[30],-0.341
same,glycan array binding signal (z-score),[31],-0.816
same,glycan array binding signal (z-score),[32],-0.531
same,glycan array binding signal (z-score),[33],-0.576
same,glycan array binding signal (z-score),[34],-0.945
same,glycan array binding signal (z-score),[35],-0.696
same,glycan array binding signal (z-score),[36],-0.063
same,glycan array binding signal (z-score),[37],-0.866
same,glycan array binding signal (z-score),[38],-0.285

# Quoted at random: two entries already listed, in no set order.
binder,measurement,setting,value
B1,glycan array binding signal (z-score),[24],-0.028
same,glycan array binding signal (z-score),[20],0.146
